Experimental data from patent publication US20100016340A1, “PHARMACEUTICAL COMPOUNDS” (Astex Therapeutics Limited, priority 2006, published 2010).
Structures can show the parent of a compound that is named as a salt. Some entries share one result that the patent states for a list of compounds.

Amino acid sequences for entries named in this document (tags omitted). Chains listed by the source or under a name are the forms on record and can include a tag or linker.
UniProt P31751, with tags, fused parts or gaps limits assumed: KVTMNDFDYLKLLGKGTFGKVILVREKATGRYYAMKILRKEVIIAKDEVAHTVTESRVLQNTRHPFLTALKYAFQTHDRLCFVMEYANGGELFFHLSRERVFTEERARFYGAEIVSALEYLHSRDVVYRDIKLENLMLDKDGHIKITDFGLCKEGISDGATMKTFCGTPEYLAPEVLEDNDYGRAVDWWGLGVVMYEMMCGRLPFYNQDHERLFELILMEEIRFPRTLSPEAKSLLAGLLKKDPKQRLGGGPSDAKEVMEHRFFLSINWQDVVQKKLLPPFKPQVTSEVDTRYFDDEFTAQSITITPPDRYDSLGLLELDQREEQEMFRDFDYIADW

molecular target: T1, PKB-PIF (Homo sapiens, UniProt P31751); assay: Measurement of PKB kinase inhibitory activity (IC50), 33P-ATP phosphocellulose filter assay; assay type: biochemical; settings: 0.6 nM enzyme, 30 μM ATP, 25 μM AKTide-2T substrate, 20 minutes; read-out: IC50, concentration of test compound required to inhibit 50% of the PKB activity
T1 construct: made in house
Experimental: The inhibition of protein kinase B (PKB) activity by compounds can be determined essentially as described by Andjelkovic et al. (Mol. Cell. Biol. 19, 5061-5072 (1999)) but using a fusion protein described as PKB-PIF and described in full by Yang et al (Nature Structural Biology 9, 940-944 (2002)). […] A final concentration of 0.6 nM enzyme is used in a buffer that includes 20 mM MOPS pH 7.2, 30 μM ATP/γ^33P-ATP and 25 μM substrate. Compounds are added in DMSO solution to a final DMSO concentration of 2.5%. The reaction is allowed to proceed for 20 minutes before addition of excess orthophosphoric acid to quench activity. The reaction mixture is transferred to a phosphocellulose filter plate where the peptide binds and the unused ATP is washed away. After washing, scintillant is added and the incorporated activity measured by scintillation counting.
The % inhibition of the PKB activity is calculated and plotted in order to determine the concentration of test compound required to inhibit 50% of the PKB activity (IC50).

IC50, < 20 µM:
NC1CCN(c2ccnc3c2CC(=O)N3)CC1 [Example 1, 4-(4-amino-piperidin-1-yl)-1,3-dihydro-pyrrolo[2,3-b]pyridin-2-one]
NC1(C(=O)NCc2ccc(Cl)c(-c3ccccc3)c2)CCN(c2ncnc3[nH]ccc23)CC1 [Example 2, 4-Amino-1-(7H-pyrrolo[2,3-d]pyrimidin-4-yl)-piperidine-4-carboxylic acid (6-chloro-biphenyl-3-ylmethyl)-amide hydrochloride]
NCC1(c2cccc(-c3ccccc3)c2)CCN(c2ncnc3[nH]ccc23)CC1 [Example 4, C-[4-Biphenyl-3-yl-1-(7H-pyrrolo[2,3-d]pyrimidin-4-yl)piperidin-4-yl]methylamine]
COc1ccc(-c2cccc(C3(CN)CCN(c4ncnc5[nH]ccc45)CC3)c2)cc1 [Example 5, C-[4-(4′-Methoxybiphenyl-3-yl)-1-(7H-pyrrolo[2,3-d]pyrimidin-4-yl)piperidin-4-yl]methylamine]
NC1(C(=O)NCc2ccc(Cl)cc2F)CCN(c2ncnc3[nH]c(=O)[nH]c23)CC1 [Example 7, 4-Amino-1-(8-oxo-8,9-dihydro-7H-purin-6-yl)-piperidine-4-carboxylic acid 4-chloro-2-fluoro-benzylamide]
NCC1(c2ccc(OC(F)(F)F)cc2)CCN(c2ncnc3[nH]c(=O)[nH]c23)CC1 [Example 10, 6-[4-Aminomethyl-4-(4-trifluoromethoxyphenyl)piperidin-1-yl]-7,9-dihydropurin-8-one]
NC1(Cc2ccc(Cl)cc2)CCN(c2ncnc3[nH]c(=O)[nH]c23)CC1 [Example 11, 6-[4-Amino-4-(4-chlorobenzyl)piperidin-1-yl]-7,9-dihydropurin-8-one]
NC1(c2ccc(Cl)cc2)CCN(c2ncnc3[nH]c(=O)[nH]c23)CC1 [Example 12, 6-[4-Amino-4-(4-chlorophenyl)piperidin-1-yl]-7,9-dihydropurin-8-one]
CC(C)(C)c1ccc(CC2(N)CCN(c3ncnc4[nH]ncc34)CC2)cc1 [Example 13, 4-(4-tert-Butyl-benzyl)-1-(1H-pyrazolo[3,4-d]pyrimidin-4-yl)-piperidin-4-ylamine]
